How the values were obtained:
HTP in a nematic = format: physicochemical
[1] = Photomodulation of the colour of display cells (UV exposure, UV-VIS spectrum)
Excerpt: The compound thus prepared is introduced into a test cell including a front substrate and a back substrate, these substrates being formed by glass plates, of 2.2×2.8 mm and 0.3 mm thick held by a sealing frame at a spacing of 6 μm. The cell includes an non brushed planar alignment layer, and a 1 cm square shape pixel including on each of the substrates an indium tin oxide (ITO) coating forming the electrodes which will allow the cell to switch from one state to another by applying an electric field. Once filled, the cell is exposed to UV radiation and the evolution of the UV-VIS spectrum is followed as a function of exposure time. In the experiment corresponding to the graph of FIG. 3, giving the transmission percentage as a function of wavelength, only chiral doping agent 209s has been added to the basic cholesteric material and the initial state (curve a) and the spectrum respectively after 1 minute (curve b), 3 minutes (curve c) and 10 minutes exposure (curve d) are shown. A longer exposure time no longer modifies the spectrum, curve d representing the cell spectrum photomodulated to the maximum. A displacement will then be observed reaching 160 nm from the initial spectrum, i.e. a displacement from violet blue (curve b) to orange-red (curve d), passing through green (curve c). In the experiment corresponding to the graph of FIG. 4, 3% in weight of a photoinitiator of the morpholinocetone type, commercially available from Ciba-Geigy under the reference Irgacure®369, has been added to the basic cholesteric material. This photoinitiator aims to improve polymerisation of the end chains. For the purpose of improving polymerisation and thus the fixing of a determined colour, the photoinitiator may also be replaced by a […] comonomer, such as the compound RM-82 available from Merck. It is also possible to use simultaneously, in appropriate ratios, both a photoinitiator and a comonomer. With reference now to FIG. 4, which concerns a cell whose basic cholesteric material only contains one doping agent according to the invention and a photoinitiator. […]

“2-[4′-(6-Acryloyloxyhexyloxy)-2′,5′-methylazophenyl-4-carbonyloy]-5-[4-(6-acryloyloxyhexyloxy) Benzoyl]-1,4;3,6-D-mannitol [Compound 210fs]” gave an HTP (HTP in a nematic) of 17 μm^−1.

For “2-[4′-(6-Acryloyloxyhexyloxy)-2′.5′-methylazophenyl-4-carbonyloy]—5-[4-(6-Acryloyloxyhexyloxy)benzoyl]-1.4:3.6-D-glucitol [Compound 209sf]”, the HTP (HTP in a nematic) was 35 μm^−1 and the “variation of spectrum (window)” value ([1]; 4.1% in weight in basic cholesteric material with photoinitiator, after 5 minutes) was 220 nm.

With CCCCCCOc1ccc(/N=N/c2ccc(OC(=O)[C@H](OC(=O)c3ccc(C)cc3)[C@@H](OC(=O)c3ccc(C)cc3)C(=O)Oc3ccc(/N=N/c4ccc(OCCCCCC)cc4)cc3)cc2)cc1 [Compound 201c] the HTP (HTP in a nematic) was 20 μm^−1.

C=CC(=O)OCCCCOc1ccc(/N=N/c2ccc(OC(=O)[C@H](OC(=O)c3ccc(C)cc3)[C@@H](OC(=O)c3ccc(C)cc3)C(=O)Oc3ccc(/N=N/c4ccc(OCCCCOC(=O)C=C)cc4)cc3)cc2)cc1 [Compound 201e, 2,3-Bis[di-4, 4′ (4-acryloyloxybutyloxy)azophenyl-carbonyloy]-di-O, O′-p-toluyl-L-tartrate] gave an HTP (HTP in a nematic) of 19 μm^−1.

Work on CCCCCCOc1ccc(/N=N/c2ccc(OC(=O)[C@@H]3OC(C)(C)O[C@H]3C(=O)Oc3ccc(/N=N/c4ccc(OCCCCCC)cc4)cc3)cc2)cc1 [Compound 206c] yielded an HTP (HTP in a nematic) of 13 μm^−1.

C=CC(=O)OCCCCOc1ccc(/N=N/c2ccc(OC(=O)[C@@H]3OC(C)(C)O[C@H]3C(=O)Oc3ccc(/N=N/c4ccc(OCCCCOC(=O)C=C)cc4)cc3)cc2)cc1 [Compound 206e] gave an HTP (HTP in a nematic) of 11 μm^−1.

In the case of C=CC(=O)OCCCCCCOc1cc(C)c(N=Nc2ccc(C(=O)OC3COC4C(OC(=O)c5ccc(N=Nc6cc(C)c(OCCCCCCOC(=O)C=C)cc6C)cc5)COC34)cc2)cc1C (stereo not shown) [Compound 209s, 2.5 Bis[4′-(6-acryloyloxyhexyloxy)-2.5′-methylazophenyl-4-carbonyloyl]-1.4;3.6-dianhydro-D.glucitol], the HTP (HTP in a nematic) is reported as 35 μm^−1, the “displacement from the initial spectrum” value ([1]; 3.3% in basic cholesteric material (E48), no photoinitiator, 10 minutes UV exposure (photomodulated to the maximum), FIG. 3) is reported as 160 nm and the “variation between the initial spectrum and the spectrum of the cell photomodulated to the maximum” value ([1]; basic cholesteric material with 3% in weight photoinitiator Irgacure 369, 18 minutes exposure, FIG. 4) is reported as 190 nm.
